Data taken from PubChem BioAssay (Tox21).
Inconclusive results, whose numbers are uncertain, are shown with a selection of clear calls. Potencies beside an inconclusive call are fits to weak or partial responses and may not hold up. Activity calls are given as the source filed them. Calls come from the whole dose curve; as a rule, active = well fitted cell-killing curve with a large enough effect in the repeat runs; inconclusive = weak or mixed curves, or effect the other way; inactive = flat fitted curve, though single readings scatter.

Assay: cAMP Responsive Elements (CRE) small molecule agonists, cell-based qHTS assay: qHTS cell viability counter screen (AID 2060914); note: nearly all actives have a fitted effect of over 50% in size
Conditions: CRE-bla HEK293T viability, CellTiter-Glo luminescence, 5 h; series mostly up to 92.4 µM; activity change, negative = cytotoxicity: at the top concentration
Summary of the method: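 Cytotoxicity was measured as ATP luminescence (CellTiter-Glo, 30 min at room temperature) in the same wells as the CRE-bla FRET read-out. HEK293T CRE-bla cells had 3 h compound exposure at 37C/5% CO2.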
% is set by controls: 0 for no effect and ±100 for the full control effect; potency is the fitted concentration of half-maximal effect.

**Q.** With `c1cc(CCCc2ccncc2)ccn1` as the compound, how does the Potency read?
**A.** Its Potency is inconclusive: 0.969 µM [cytotoxic, single point].

**Q.** With `CCOc1ccc(N)c([N+](=O)[O-])c1` as the compound, how does the “activity change, negative = cytotoxicity” value read?
**A.** Its value is inactive: 4.68%.

**Q.** For `CCCCCCCC=O`, which Potency is on record?
**A.** Its Potency is inconclusive: 15.4 µM [cytotoxic, single point].

**Q.** With `ClC(Cl)(Cl)c1ccc(C(Cl)(Cl)Cl)cc1` as the compound, how does the “activity change, negative = cytotoxicity” value read?
**A.** The value was inactive: -5.6%.

**Q.** With `CCn1c2ccccc2c2ccccc21` as the compound, how does the “activity change, negative = cytotoxicity” value read?
**A.** The value was inactive: -0.216%.

**Q.** With `C/C=C/C=C/C=O` as the compound, how does the Potency read?
**A.** The Potency was inconclusive: 0.541 µM [cytotoxic, single point].

**Q.** Which “activity change, negative = cytotoxicity” value does the source give for `NC(=O)NS(=O)(=O)c1ccc(N)cc1` here?
**A.** The value was inactive: -10.3% [at 42.5 µM].

**Q.** Which Potency does the source give for `CCCCCC1=CCCC1=O` here?
**A.** The Potency was “inactive”.

**Q.** For `COC(=O)c1ccccc1O`, which Potency is on record?
**A.** Its Potency is inconclusive: 1.37 µM [cytotoxic, single point].

**Q.** For `CCCCCCOC(=O)CC`, which Potency is on record?
**A.** The Potency was inconclusive: 1.37 µM [cytotoxic, single point].

**Q.** With `Cc1cc(CCC(=O)OCCOCCOCCOC(=O)CCc2cc(C)c(O)c(C(C)(C)C)c2)cc(C(C)(C)C)c1O` as the compound, how does the “activity change, negative = cytotoxicity” value read?
**A.** Its value is inactive: -13.6%.

**Q.** With `C=CC(=C)CCCC(C)(C)OC(C)=O` as the compound, how does the “activity change, negative = cytotoxicity” value read?
**A.** Its value is inactive: -2.1%.

**Q.** Which “activity change, negative = cytotoxicity” value does the source give for `Cc1cccc(Br)c1` here?
**A.** The value was inactive: -4.56%.

**Q.** With `NC(=O)c1cccc([N+](=O)[O-])c1` as the compound, how does the “activity change, negative = cytotoxicity” value read?
**A.** The value was inactive: 6.07%.

**Q.** For `Cc1cc(C)c(C)c(C)c1`, which Potency is on record?
**A.** Its Potency is inconclusive: 0.545 µM [cytotoxic, single point].

**Q.** For `CCCC(CCC)C(=O)O`, which Potency is on record?
**A.** Its Potency is inconclusive: 0.486 µM [cytotoxic, single point].

**Q.** With `CC1=CCC2C(C1)C2(C)C` (centres undefined) as the compound, how does the Potency read?
**A.** The Potency was inconclusive: 0.0034 µM [rising, full curve, poor fit].

**Q.** With `C[C@@H]1C[C@H]2[C@@H]3C[C@H](F)C4=CC(=O)C=C[C@]4(C)[C@@]3(F)[C@@H](O)C[C@]2(C)[C@@]1(O)C(=O)CO` as the compound, how does the “activity change, negative = cytotoxicity” value read?
**A.** Its value is inactive: 13.5% [at 42.5 µM].

**Q.** For `CC1=NN(c2cccc(S(=O)(=O)O)c2)C(=O)C1`, which Potency is on record?
**A.** The Potency was inconclusive: 68.6 µM [cytotoxic, single point].

**Q.** Which “activity change, negative = cytotoxicity” value does the source give for `CCC(=O)/C=C/c1ccc(OC)cc1` here?
**A.** Its value is inactive: 20.5%.

**Q.** Which Potency does the source give for `COc1nc(N)nc2nc[nH]c12` here?
**A.** The Potency was inconclusive: 2.44 µM [cytotoxic, single point].

**Q.** With `CCCCCC(N)=O` as the compound, how does the Potency read?
**A.** The Potency was inconclusive: 2.66 µM [cytotoxic, full curve, poor fit].

**Q.** With `CC(=O)Oc1ccc(C2(c3ccc(OC(C)=O)cc3)Oc3ccccc3NC2=O)cc1` as the compound, how does the Potency read?
**A.** The Potency was inconclusive: 0.0017 µM [rising, full curve, poor fit].

**Q.** With `CCC(C)c1nccnc1OC` (centres undefined) as the compound, how does the Potency read?
**A.** Its Potency is inconclusive: 0.611 µM [cytotoxic, single point].

**Q.** With `Nc1ccc(/C=C/c2ccc(N)cc2S(=O)(=O)O)c(S(=O)(=O)O)c1` as the compound, how does the activity change, negative = cytotoxicity read?
**A.** Its activity change, negative = cytotoxicity is inactive: 6.77% [at 0.349 µM].

**Q.** Which activity change, negative = cytotoxicity does the source give for `C[C@H]1NCc2cc(-c3ccc4c(=O)c(C(=O)O)cn(C5CC5)c4c3OC(F)F)ccc21` here?
**A.** Its activity change, negative = cytotoxicity is inactive: -2.79% [at 18.9 µM].

**Q.** With `C=C1C[C@H]2[C@@H]3C=C(C)C4=CC(=O)CC[C@]4(C)[C@H]3CC[C@]2(C)[C@@]1(OC(C)=O)C(C)=O` as the compound, how does the Potency read?
**A.** The Potency was inconclusive: 13.3 µM [cytotoxic, single point].

**Q.** For `O=C(/C=C/c1ccccc1)OC/C=C/c1ccccc1`, which Potency is on record?
**A.** Its Potency is inconclusive: 77 µM [cytotoxic, partial curve, poor fit].

**Q.** Which “activity change, negative = cytotoxicity” value does the source give for `CCN(CC)CCNC(=O)COc1ccc(OC)cc1` here?
**A.** Its value is inactive: -13.1% [at 42.5 µM].

**Q.** For `CCCCCCCCCCCC(=O)N(C)CC(=O)O`, which Potency is on record?
**A.** The Potency was inconclusive: 23.6 µM [rising, single point].

**Q.** With `Cc1onc(-c2c(Cl)cccc2Cl)c1C(=O)Cl` as the compound, how does the Potency read?
**A.** The Potency was inconclusive: 7.5 µM [cytotoxic, single point].

**Q.** With `CCC(C)(C)c1ccc(CC(C)CN2C[C@@H](C)O[C@@H](C)C2)cc1` (some centres undefined) as the compound, how does the Potency read?
**A.** Its Potency is inconclusive: 29.8 µM [cytotoxic, single point].

**Q.** With `CC1=CCC(O)(C(C)C)CC1` (centres undefined) as the compound, how does the “activity change, negative = cytotoxicity” value read?
**A.** Its value is inactive: -7.24%.

**Q.** Which Potency does the source give for `CCN1CCCC(OC(=O)C(c2ccccc2)c2ccccc2)C1` (centres undefined) here?
**A.** Its Potency is inconclusive: 1.33 µM [cytotoxic, single point].

**Q.** For `O=C(O)c1cc(Cl)cc(Cl)c1O`, which Potency is on record?
**A.** The Potency was inconclusive: 0.243 µM [cytotoxic, single point].

**Q.** Which Potency does the source give for `OCc1ccccc1` here?
**A.** The Potency was inconclusive: 15.1 µM [cytotoxic, single point].

**Q.** With `Oc1ccc2ccccc2c1` as the compound, how does the Potency read?
**A.** Its Potency is inconclusive: 68.6 µM [cytotoxic, partial curve, poor fit].

**Q.** For `CN1CCN(CCC(=O)N2c3ccccc3Sc3ccc(C(F)(F)F)cc32)CC1`, which Potency is on record?
**A.** The Potency was inconclusive: 0.668 µM [cytotoxic, single point].

**Q.** For `CCCCC(CC)C(=O)OC(C)C` (centres undefined), which “activity change, negative = cytotoxicity” value is on record?
**A.** Its value is inactive: -0.316%.
